PMC11396803, “Synthesis of Tumor Selective Indole and 8-Hydroxyquinoline Skeleton Containing Di-, or Triarylmethanes with Improved Cytotoxic Activity” (Molecules, 2024)

These compounds were tested on Colo320/MDR-LRP colon adenocarcinoma cell line (assay: MTT cytotoxicity assay on doxorubicin-resistant, ABCB1- and LRP-expressing Colo320 cells). Details: ratio of IC50 in resistant Colo320 and IC50 in sensitive Colo205.
Format: cell-based, human
Description: The doxorubicin-sensitive Colo205 (ATCC-CCL-222) and the doxorubicin-resistant ABCB1- and LRP-expressing Colo320/MDR-LRP (ATCC-CCL-220.1) human colon adenocarcinoma cell lines were obtained from LGC Promochem in Teddington, UK. These cell lines were cultivated in RPMI 1640 medium supplemented with 10% heat-inactivated foetal bovine serum (FBS), 2 mM L-glutamine, 1 mM Na-pyruvate, 10 mM HEPES, along with nystatin, and gentamicin. The normal MRC-5 (ATCC CCL-171) human embryonic lung fibroblast cell line was purchased from Sigma-Aldrich (Merck KGaA, Darmstadt, Germany). The MRC-5 cells were cultured in EMEM medium, supplemented with 1% non-essential amino acid (NEAA) mixture, a selection of vitamins, 10% heat-inactivated FBS, 2 mM L-glutamine, 1 mM Na pyruvate, nystatin, and gentamicin. The cell lines were incubated in humidified atmosphere (5% CO2, 95% air) at 37 °C. The cells were detached with a Trypsin-Versene (EDTA) solution for 5 min at 37 °C.
The effects of increasing concentrations of the compounds on cell growth were tested in 96-well flat-bottomed microtiter plates. Namely, 1 × 10^4 of human colonic adenocarcinoma cells in 100 μL of the medium (RPMI 1640) were added to each well, except for the medium control wells. The adherent human embryonic lung fibroblast cell line was seeded in the EMEM medium for 24 h before the assay. The two-fold serial dilutions of the compounds were made in a separate plate (100–0.19 μM) and then transferred to the plates containing the cells. The starting concentration of the solvent DMSO was 2% v/v, and the highest concentration of the compounds in the plate was 100 μM. Plates were incubated at 37 °C for 24 h. At the end of the incubation, 20 μL of MTT (thiazolyl blue tetrazolium bromide) solution (from a 5 mg/mL stock solution) was added to each well. After incubation at 37 °C for 4 h, 100 μL of sodium dodecyl sulfate (SDS) solution (10% SDS in 0.01 M HCl) was added to each well, and the plates were further incubated at 37 °C overnight. Cell growth was determined by measuring the optical density (OD) at 540 nm (ref. 630 nm) with a Multiscan EX ELISA reader (Thermo Labsystems, Cheshire, WA, USA). Inhibition of cell growth was expressed as IC50 values, defined as the inhibitory dose that reduces the growth of the cells exposed to the tested compounds by 50%. IC50 values and the SD of triplicate and duplicate (in the case of MRC-5) experiments were calculated by using GraphPad Prism software version 5.00 for Windows, with a non-linear regression curve fit (GraphPad Software, San Diego, CA, USA; www.graphpad.com, accessed on 12 July 2021). Doxorubicin (from a 2 mg/mL stock solution, Teva Pharmaceuticals) was used as a positive control. […] The relative resistance (RR) was calculated as the ratio of the IC50 value in the resistant cancer cells and the IC50 value in the sensitive cancer cell lines. The selectivity indexes (SI) were calculated as the ratio of the IC50 value in the non-tumor cells and the IC50 value in the cancer cell lines. The activity of the compounds towards cancer cells is considered to be strongly selective if the selectivity index (SI) value is higher than 6, moderately selective if 3 < SI < 6, slightly selective if 1 < SI < 3, and non-selective if the SI is lower than 1 [22].

Going from `CCOC(=O)C(c1cc(Cl)c2cccnc2c1O)N1CCOCC1` (centres unmarked) [Compound 10, Ethyl 2-(5-chloro-8-hydroxyquinolin-7-yl)-2-morpholinoacetate] to `CCOC(=O)C(c1cc(Cl)c2cccnc2c1O)c1c[nH]c2ccccc12` (centres unmarked) [Compound 11, Ethyl 2-(5-chloro-8-hydroxyquinolin-7-yl)-2-(1H-indol-3-yl)acetate], the “Relative resistance RR Colo320/Colo205” value rises from 0.83 to 0.98.

Going from `CCOC(=O)C(c1cc(Cl)c2cccnc2c1O)c1c[nH]c2ncccc12` (centres unmarked) [Compound 12, Ethyl 2-(5-chloro-8-hydroxyquinolin-7-yl)-2-(7-azaindole-3-yl)acetate] to `Oc1c(Cc2c[nH]c3ccccc23)cc(Cl)c2cccnc12` [Compound 16, 7-((1H-indol-3-yl)methyl)-5-chloroquinolin-8-ol], the “Relative resistance RR Colo320/Colo205” value falls from 0.62 to 0.37.

In the case of `Oc1c(C(c2ccccc2)c2c[nH]c3ccccc23)cc(Cl)c2cccnc12` (centres unmarked) [Compound 14, 7-((1H-indol-3-yl)(phenyl)methyl)-5-chloroquinolin-8-ol], the “Relative resistance RR Colo320/Colo205” value is reported as 1.07.
